# The list shows a part of the results.
# What was measured:
# Test in all cases: glycan array binding signal (z-score within array); higher = stronger binding
# Conditions in all cases: glycan notation: IUPAC condensed, linker removed
# [1] = target: Gal(b1-4)GlcNAc(b1-3)Gal(b1-3)GlcNAc
# Procedure, shortened: (§1)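 Glycan array data came from 3228 arrays in the Consortium for Functional Glycomics database, and only arrays with an available protein sequence were kept. Glycan names were put into IUPAC-condensed notation, and columns mapping to the same glycan were averaged. The binding signal is a within-array Z-score, averaged across arrays of one protein sequence run at different concentrations or buffers and across linkers. A negative Z-score can be read as non-binding.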
# [2] = target: Gal(b1-4)GlcNAc(b1-3)Gal(b1-4)Glc
# Procedure, shortened: as §1
# [3] = target: Gal(b1-4)GlcNAc(b1-3)Gal(b1-4)GlcNAc
# Procedure, shortened: as §1
# [4] = target: Gal(b1-4)GlcNAc(b1-3)Gal(b1-4)GlcNAc(b1-2)Man(a1-3)[Gal(b1-4)GlcNAc(b1-3)Gal(b1-4)GlcNAc(b1-2)Man(a1-6)]Man(b1-4)GlcNAc(b1-4)GlcNAc
# Procedure, shortened: as §1
# [5] = target: Gal(b1-4)GlcNAc(b1-3)Gal(b1-4)GlcNAc(b1-2)Man(a1-3)[Gal(b1-4)GlcNAc(b1-3)Gal(b1-4)GlcNAc(b1-2)Man(a1-6)]Man(b1-4)GlcNAc(b1-4)[Fuc(a1-6)]GlcNAc
# Procedure, shortened: as §1
# [6] = target: Gal(b1-4)GlcNAc(b1-3)Gal(b1-4)GlcNAc(b1-2)[Gal(b1-4)GlcNAc(b1-3)Gal(b1-4)GlcNAc(b1-6)]Man(a1-6)[Gal(b1-4)GlcNAc(b1-3)Gal(b1-4)GlcNAc(b1-2)Man(a1-3)]Man(b1-4)GlcNAc(b1-4)GlcNAc
# Procedure, shortened: as §1
# [7] = target: Gal(b1-4)GlcNAc(b1-3)Gal(b1-4)GlcNAc(b1-2)[Gal(b1-4)GlcNAc(b1-3)Gal(b1-4)GlcNAc(b1-6)]Man(a1-6)[Gal(b1-4)GlcNAc(b1-3)Gal(b1-4)GlcNAc(b1-2)Man(a1-3)]Man(b1-4)GlcNAc(b1-4)[Fuc(a1-6)]GlcNAc
# Procedure, shortened: as §1
# [8] = target: Gal(b1-4)GlcNAc(b1-3)Gal(b1-4)GlcNAc(b1-3)Gal(b1-4)GlcNAc
# Procedure, shortened: as §1
# [9] = target: Gal(b1-4)GlcNAc(b1-3)Gal(b1-4)GlcNAc(b1-3)Gal(b1-4)GlcNAc(b1-2)Man(a1-3)[Gal(b1-4)GlcNAc(b1-3)Gal(b1-4)GlcNAc(b1-3)Gal(b1-4)GlcNAc(b1-2)Man(a1-6)]Man(b1-4)GlcNAc(b1-4)GlcNAc
# Procedure, shortened: as §1
# [10] = target: Gal(b1-4)GlcNAc(b1-3)Gal(b1-4)GlcNAc(b1-3)Gal(b1-4)GlcNAc(b1-2)Man(a1-3)[Gal(b1-4)GlcNAc(b1-3)Gal(b1-4)GlcNAc(b1-3)Gal(b1-4)GlcNAc(b1-2)Man(a1-6)]Man(b1-4)GlcNAc(b1-4)[Fuc(a1-6)]GlcNAc
# Procedure, shortened: as §1
# [11] = target: Gal(b1-4)GlcNAc(b1-3)Gal(b1-4)GlcNAc(b1-3)Gal(b1-4)GlcNAc(b1-2)[Gal(b1-4)GlcNAc(b1-3)Gal(b1-4)GlcNAc(b1-3)Gal(b1-4)GlcNAc(b1-6)]Man(a1-6)[Gal(b1-4)GlcNAc(b1-3)Gal(b1-4)GlcNAc(b1-3)Gal(b1-4)GlcNAc(b1-2)Man(a1-3)]Man(b1-4)GlcNAc(b1-4)[Fuc(a1-6)]GlcNAc
# Procedure, shortened: as §1
# [12] = target: Gal(b1-4)GlcNAc(b1-3)Gal(b1-4)GlcNAc(b1-3)Gal(b1-4)GlcNAc(b1-3)Gal(b1-4)GlcNAc(b1-2)Man(a1-3)[Gal(b1-4)GlcNAc(b1-3)Gal(b1-4)GlcNAc(b1-3)Gal(b1-4)GlcNAc(b1-3)Gal(b1-4)GlcNAc(b1-2)Man(a1-6)]Man(b1-4)GlcNAc(b1-4)GlcNAc
# Procedure, shortened: as §1
# [13] = target: Gal(b1-4)GlcNAc(b1-3)Gal(b1-4)GlcNAc(b1-3)Gal(b1-4)GlcNAc(b1-3)Gal(b1-4)GlcNAc(b1-2)Man(a1-3)[Gal(b1-4)GlcNAc(b1-3)Gal(b1-4)GlcNAc(b1-3)Gal(b1-4)GlcNAc(b1-3)Gal(b1-4)GlcNAc(b1-2)Man(a1-6)]Man(b1-4)GlcNAc(b1-4)[Fuc(a1-6)]GlcNAc
# Procedure, shortened: as §1
# [14] = target: Gal(b1-4)GlcNAc(b1-3)Gal(b1-4)GlcNAc(b1-3)Gal(b1-4)GlcNAc(b1-3)Gal(b1-4)GlcNAc(b1-2)[Gal(b1-4)GlcNAc(b1-3)Gal(b1-4)GlcNAc(b1-3)Gal(b1-4)GlcNAc(b1-3)Gal(b1-4)GlcNAc(b1-6)]Man(a1-6)[Gal(b1-4)GlcNAc(b1-3)Gal(b1-4)GlcNAc(b1-3)Gal(b1-4)GlcNAc(b1-3)Gal(b1-4)GlcNAc(b1-2)Man(a1-3)]Man(b1-4)GlcNAc(b1-4)[Fuc(a1-6)]GlcNAc
# Procedure, shortened: as §1
# [15] = target: Gal(b1-4)GlcNAc(b1-3)Gal(b1-4)GlcNAc(b1-3)Gal(b1-4)GlcNAc(b1-3)Gal(b1-4)GlcNAc(b1-3)Gal(b1-4)GlcNAc(b1-2)Man(a1-3)[Gal(b1-4)GlcNAc(b1-3)Gal(b1-4)GlcNAc(b1-3)Gal(b1-4)GlcNAc(b1-3)Gal(b1-4)GlcNAc(b1-3)Gal(b1-4)GlcNAc(b1-2)Man(a1-6)]Man(b1-4)GlcNAc(b1-4)GlcNAc
# Procedure, shortened: as §1
# [16] = target: Gal(b1-4)GlcNAc(b1-3)Gal(b1-4)GlcNAc(b1-3)Gal(b1-4)GlcNAc(b1-3)Gal(b1-4)GlcNAc(b1-3)Gal(b1-4)GlcNAc(b1-2)Man(a1-3)[Gal(b1-4)GlcNAc(b1-3)Gal(b1-4)GlcNAc(b1-3)Gal(b1-4)GlcNAc(b1-3)Gal(b1-4)GlcNAc(b1-3)Gal(b1-4)GlcNAc(b1-2)Man(a1-6)]Man(b1-4)GlcNAc(b1-4)[Fuc(a1-6)]GlcNAc
# Procedure, shortened: as §1
# [17] = target: Gal(b1-4)GlcNAc(b1-3)Gal(b1-4)GlcNAc(b1-3)Gal(b1-4)GlcNAc(b1-3)Gal(b1-4)GlcNAc(b1-3)Gal(b1-4)GlcNAc(b1-2)[Gal(b1-4)GlcNAc(b1-3)Gal(b1-4)GlcNAc(b1-3)Gal(b1-4)GlcNAc(b1-3)Gal(b1-4)GlcNAc(b1-3)Gal(b1-4)GlcNAc(b1-6)]Man(a1-6)[Gal(b1-4)GlcNAc(b1-3)Gal(b1-4)GlcNAc(b1-3)Gal(b1-4)GlcNAc(b1-3)Gal(b1-4)GlcNAc(b1-3)Gal(b1-4)GlcNAc(b1-2)Man(a1-3)]Man(b1-4)GlcNAc(b1-4)[Fuc(a1-6)]GlcNAc
# Procedure, shortened: as §1
# [18] = target: Gal(b1-4)GlcNAc(b1-3)Gal(b1-4)GlcNAc(b1-3)Gal(b1-4)GlcNAc(b1-3)Gal(b1-4)GlcNAc(b1-3)Gal(b1-4)GlcNAc(b1-3)Gal(b1-4)GlcNAc(b1-2)Man(a1-3)[Gal(b1-4)GlcNAc(b1-3)Gal(b1-4)GlcNAc(b1-3)Gal(b1-4)GlcNAc(b1-3)Gal(b1-4)GlcNAc(b1-3)Gal(b1-4)GlcNAc(b1-3)Gal(b1-4)GlcNAc(b1-2)Man(a1-6)]Man(b1-4)GlcNAc(b1-4)GlcNAc
# Procedure, shortened: as §1
# [19] = target: Gal(b1-4)GlcNAc(b1-3)Gal(b1-4)GlcNAc(b1-3)GalNAc
# Procedure, shortened: as §1
binder,measurement,setting,value
"LlpA1 (Pseudomonas fluorescens), Q4KHC3 (protein) MGSSHHHHHHSSGLVPRGSHMAWIRYDFTDNGSSVLPARYYMAPNQYLQSPNKRFKLLFQADGNLALYDGAQLAWVADQNTPFTNVSKGNKKDPMMVFMNYGFVLDDPLRGRIWSTTPSDPTMGSREDASLRAFTQVQDDGNIVTVDTIPHWYAPNGRVFTPAVGAAMIIGGTTELVPGQFYSAGEHSLVFQGDGNLVVYGPNSSVIWATYTQNKGGVRCVMQEDGNLVIYAANNGVVWQSGTGGHPGATIRLQANGSFTIVTERPVWARFGYTPTIKPPRVFYPDHKWKTGSYTWNNVF",glycan array binding signal (z-score),[1],-0.133
same,glycan array binding signal (z-score),[2],-0.212
same,glycan array binding signal (z-score),[3],-0.078
same,glycan array binding signal (z-score),[4],1.13
same,glycan array binding signal (z-score),[5],0.974
same,glycan array binding signal (z-score),[6],2.3
same,glycan array binding signal (z-score),[7],1.19
same,glycan array binding signal (z-score),[8],-0.364
same,glycan array binding signal (z-score),[9],1.63
same,glycan array binding signal (z-score),[10],2.23
same,glycan array binding signal (z-score),[11],1.04
same,glycan array binding signal (z-score),[12],0.38
same,glycan array binding signal (z-score),[13],1.12
same,glycan array binding signal (z-score),[14],0.651
same,glycan array binding signal (z-score),[15],2.15
same,glycan array binding signal (z-score),[16],0.464
same,glycan array binding signal (z-score),[17],0.379
same,glycan array binding signal (z-score),[18],2.19
same,glycan array binding signal (z-score),[19],0.115

# Reformatted: entries from further up
binder	measurement	setting	value
LlpA1 (Pseudomonas fluorescens), Q4KHC3 (protein) MGSSHHHHHHSSGLVPRGSHMAWIRYDFTDNGSSVLPARYYMAPNQYLQSPNKRFKLLFQADGNLALYDGAQLAWVADQNTPFTNVSKGNKKDPMMVFMNYGFVLDDPLRGRIWSTTPSDPTMGSREDASLRAFTQVQDDGNIVTVDTIPHWYAPNGRVFTPAVGAAMIIGGTTELVPGQFYSAGEHSLVFQGDGNLVVYGPNSSVIWATYTQNKGGVRCVMQEDGNLVIYAANNGVVWQSGTGGHPGATIRLQANGSFTIVTERPVWARFGYTPTIKPPRVFYPDHKWKTGSYTWNNVF	glycan array binding signal (z-score)	[13]	1.12
same	glycan array binding signal (z-score)	[15]	2.15

# — the supplement of paper PMC8728848
